These are yes or no findings as the source states them, for the method shown. For some of these results: In cells and extracts the contact can be indirect. Some results given as binding are weak or reduced against the parent protein; the word gives no strength.
Experiments:
[1] = biological target: VHL (endogenous von Hippel-Lindau protein) (human) (UniProt P40337); assay: Western blots of FIG. 4-FIG. 6 (co-immunoprecipitation of endogenous proteins)
[2] = biological target: VHL (endogenous von Hippel-Lindau protein) (human) (UniProt P40337); assay: sucrose density gradient centrifugation of HepG2 lysate, Western blot of fractions
[3] = biological target: VHL (endogenous von Hippel-Lindau protein) (human) (UniProt P40337); assay: co-immunoprecipitation with anti-VHL or anti-UCP from HLK3 and Ck-K1 lysates, Western blot
[4] = biological target: VHL (endogenous von Hippel-Lindau protein) (human) (UniProt P40337); assay: sucrose density gradient centrifugation, Western blot (FIG. 7)
[5] = biological target: VHL (endogenous von Hippel-Lindau protein) (human) (UniProt P40337); assay: summary sentence citing FIG. 4-FIG. 7
[6] = biological target: VHL (endogenous von Hippel-Lindau protein) (human) (UniProt P40337); assay: conclusion of Example 1 (immunoprecipitation, GST pull-down, sucrose gradient)
HA-VHL = HA-VHL (UniProt P40337); assay: GST pull-down from 293-HA-VHL cell lysate, Western blot with anti-HA
GST-VHL [7] = biological target: GST-VHL (UniProt P40337); assay: GST pull-down from 293-F-UCP cell lysate, Western blot with anti-Flag
[8] = biological target: VHL (endogenous von Hippel-Lindau protein) (human) (UniProt P40337); assay: sucrose density gradient centrifugation of lysate of CAKI cells transfected with F-UCP, Western blot of fractions
[9] = biological target: VHL (endogenous von Hippel-Lindau protein) (human) (UniProt P40337); assay: sucrose density gradient centrifugation, Western blot (FIG. 8b)
[10] = biological target: VHL (endogenous von Hippel-Lindau protein) (human) (UniProt P40337); assay: Western blots of FIG. 4-FIG. 6 (immunoprecipitation of over-expressed protein)
GST-VHL [11] = biological target: GST-VHL (UniProt P40337); assay: Western blots of FIG. 4-FIG. 6 (GST pull-down)
[12] = biological target: VHL (endogenous von Hippel-Lindau protein) (human) (UniProt P40337); assay: anti-Flag immunoprecipitation from HEK293T lysate, Western blot

Protein sequences, listed by entry. Tags and fused reporters are not part of them.
UniProt P40337: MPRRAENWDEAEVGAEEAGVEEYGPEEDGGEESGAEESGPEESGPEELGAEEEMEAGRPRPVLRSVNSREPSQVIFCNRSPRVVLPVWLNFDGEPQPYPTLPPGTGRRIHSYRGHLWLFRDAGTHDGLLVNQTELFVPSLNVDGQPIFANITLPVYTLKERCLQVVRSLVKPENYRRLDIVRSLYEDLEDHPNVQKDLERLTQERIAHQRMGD
UniProt Q16763: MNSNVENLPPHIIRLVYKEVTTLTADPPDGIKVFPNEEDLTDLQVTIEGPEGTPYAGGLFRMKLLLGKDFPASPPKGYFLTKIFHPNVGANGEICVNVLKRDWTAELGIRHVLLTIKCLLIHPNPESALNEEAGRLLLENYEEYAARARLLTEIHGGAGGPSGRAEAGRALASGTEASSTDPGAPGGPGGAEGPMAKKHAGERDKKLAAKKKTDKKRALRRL
UniProt P61077: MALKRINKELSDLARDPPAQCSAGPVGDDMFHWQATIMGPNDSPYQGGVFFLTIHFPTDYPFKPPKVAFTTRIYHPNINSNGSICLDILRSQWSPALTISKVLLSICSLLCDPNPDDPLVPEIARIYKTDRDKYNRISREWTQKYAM

Measured: binding

UCP (endogenous E2EPF ubiquitin carrier protein) (from UniProt Q16763 1-222) (enzyme)
binds: [1] | [2] | [3] | [4] | [5] | [6]

GST-UbCH5C (from UniProt P61077 1-147) (enzyme)
binds: HA-VHL

Flag-UCP (from UniProt Q16763 1-222) (enzyme)
binds: GST-VHL [7] | [8] | [9] | [10] | GST-VHL [11] | [12]
